Record: PubChem BioAssay AID1259254 (NCATS, 2017)

Test: 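Genome-wide screen for genes that prevent DNA re-replication in cancer cells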 (primary screen)
Cell system: human HCT116 colorectal cancer cells
Knock-down reagent: single siRNA against human genes
Time to read-out: 3 days
Measurement: 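Nuclei stained with Hoechst and imaged; cell-cycle phase assigned by DNA content; G2 share scaled per plate, non-targeting siRNA 0%, GMNN siRNA 100%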
Scale: G2 robust z-score and G2 cells, % of GMNN control: higher = more G2 cells, more excess DNA replication
Hit rule: 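An siRNA counts as active if its G2 robust z-score lies at least 5 MADs above the screen median; here such calls match roughly 38% of GMNN control or more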
The whole screen tested about 59,000 reagents; below is an unselected part. Of all reagents, about 1,550 (2.6%) got an active call. 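G2 share is only a proxy for re-replication; each gene was hit by three separate siRNAs, and active genes were retested.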 The numbers tell different reagents against one gene apart. Not all columns of the deposit are shown. Not stated in the record: the amount of reagent.

target gene | reagent | G2 robust z-score | G2 cells, % of GMNN control | Call
SEC61G (SEC61 translocon subunit gamma) | 1 | 4.26 | 33 | inactive
SEC61G (SEC61 translocon subunit gamma) | 2 | 3.69 | 28.9 | inactive
SEC61G (SEC61 translocon subunit gamma) | 3 | 2.21 | 18.5 | inactive
TAS2R40 (taste 2 receptor member 40) | 1 | 0.143 | 3.97 | inactive
TAS2R40 (taste 2 receptor member 40) | 2 | 0.298 | 5.06 | inactive
TAS2R40 (taste 2 receptor member 40) | 3 | -0.164 | 1.82 | inactive
C1QTNF5 (C1q and TNF related 5) | 1 | 1.55 | 13.8 | inactive
C1QTNF5 (C1q and TNF related 5) | 2 | 2.03 | 17.3 | inactive
C1QTNF5 (C1q and TNF related 5) | 3 | 0.218 | 4.5 | inactive
YAE1 (YAE1 maturation factor of ABCE1) | 1 | -0.666 | -1.72 | inactive
YAE1 (YAE1 maturation factor of ABCE1) | 2 | 2.36 | 19.6 | inactive
YAE1 (YAE1 maturation factor of ABCE1) | 3 | 0.196 | 4.34 | inactive
APLP1 (amyloid beta precursor like protein 1) | 1 | 0.314 | 5.18 | inactive
APLP1 (amyloid beta precursor like protein 1) | 2 | -0.248 | 1.22 | inactive
APLP1 (amyloid beta precursor like protein 1) | 3 | 0.821 | 8.74 | inactive
WBP2P1 (WW domain binding protein 2 pseudogene 1) | 1 | 0.372 | 5.59 | inactive
WBP2P1 (WW domain binding protein 2 pseudogene 1) | 2 | -0.599 | -1.25 | inactive
WBP2P1 (WW domain binding protein 2 pseudogene 1) | 3 | -1.22 | -5.61 | inactive
ITM2B (integral membrane protein 2B) | 1 | -0.403 | 0.134 | inactive
ITM2B (integral membrane protein 2B) | 2 | 0.219 | 4.51 | inactive
ITM2B (integral membrane protein 2B) | 3 | 1.37 | 12.6 | inactive
MAML2 (mastermind like transcriptional coactivator 2) | 1 | -0.627 | -1.44 | inactive
MAML2 (mastermind like transcriptional coactivator 2) | 2 | -1.38 | -6.74 | inactive
MAML2 (mastermind like transcriptional coactivator 2) | 3 | -0.156 | 1.87 | inactive
CORO1A (coronin 1A) | 1 | 2.14 | 18 | inactive
CORO1A (coronin 1A) | 2 | -0.611 | -1.33 | inactive
CORO1A (coronin 1A) | 3 | 0.868 | 9.07 | inactive
WIPI1 (WD repeat domain, phosphoinositide interacting 1) | 1 | -0.712 | -2.04 | inactive
WIPI1 (WD repeat domain, phosphoinositide interacting 1) | 2 | 0.295 | 5.04 | inactive
WIPI1 (WD repeat domain, phosphoinositide interacting 1) | 3 | -0.97 | -3.86 | inactive
TRH (thyrotropin releasing hormone) | 1 | -0.229 | 1.35 | inactive
TRH (thyrotropin releasing hormone) | 2 | -0.715 | -2.07 | inactive
TRH (thyrotropin releasing hormone) | 3 | -0.634 | -1.49 | inactive
LEPROTL1 (leptin receptor overlapping transcript like 1) | 1 | 2.38 | 19.7 | inactive
LEPROTL1 (leptin receptor overlapping transcript like 1) | 2 | 3.03 | 24.3 | inactive
LEPROTL1 (leptin receptor overlapping transcript like 1) | 3 | 0.383 | 5.66 | inactive
TMEM62 (transmembrane protein 62) | 1 | 0.215 | 4.48 | inactive
TMEM62 (transmembrane protein 62) | 2 | 1.03 | 10.2 | inactive
TMEM62 (transmembrane protein 62) | 3 | -0.0652 | 2.51 | inactive
NADK (NAD kinase) | 1 | -0.849 | -3.01 | inactive
NADK (NAD kinase) | 2 | 0.123 | 3.83 | inactive
NADK (NAD kinase) | 3 | -0.753 | -2.33 | inactive
GLTPD2 (glycolipid transfer protein domain containing 2) | 1 | 0.315 | 5.19 | inactive
GLTPD2 (glycolipid transfer protein domain containing 2) | 2 | -0.309 | 0.794 | inactive
GLTPD2 (glycolipid transfer protein domain containing 2) | 3 | -0.173 | 1.75 | inactive
TSGA10 (testis specific 10) | 1 | -0.931 | -3.58 | inactive
TSGA10 (testis specific 10) | 2 | -0.304 | 0.832 | inactive
TSGA10 (testis specific 10) | 3 | -0.315 | 0.752 | inactive
NDC80 (NDC80 kinetochore complex component) | 1 | 3.14 | 25.1 | inactive
NDC80 (NDC80 kinetochore complex component) | 2 | 4.61 | 35.4 | inactive
NDC80 (NDC80 kinetochore complex component) | 3 | 6.13 | 46.1 | active
OR6Y1 (olfactory receptor family 6 subfamily Y member 1) | 1 | -0.525 | -0.726 | inactive
OR6Y1 (olfactory receptor family 6 subfamily Y member 1) | 2 | 4.24 | 32.8 | inactive
OR6Y1 (olfactory receptor family 6 subfamily Y member 1) | 3 | -1.02 | -4.23 | inactive
OLFML2B (olfactomedin like 2B) | 1 | 0.206 | 4.41 | inactive
OLFML2B (olfactomedin like 2B) | 2 | -0.381 | 0.29 | inactive
OLFML2B (olfactomedin like 2B) | 3 | -0.145 | 1.95 | inactive
COL9A3 (collagen type IX alpha 3 chain) | 1 | 0.643 | 7.49 | inactive
COL9A3 (collagen type IX alpha 3 chain) | 2 | -0.366 | 0.389 | inactive
COL9A3 (collagen type IX alpha 3 chain) | 3 | -0.41 | 0.0844 | inactive
PPP4R3B (protein phosphatase 4 regulatory subunit 3B) | 1 | -0.00558 | 2.93 | inactive
PPP4R3B (protein phosphatase 4 regulatory subunit 3B) | 2 | 0.642 | 7.49 | inactive
PPP4R3B (protein phosphatase 4 regulatory subunit 3B) | 3 | -0.249 | 1.21 | inactive
PTP4A1 (protein tyrosine phosphatase 4A1) | 1 | 1.26 | 11.8 | inactive
PTP4A1 (protein tyrosine phosphatase 4A1) | 2 | -1.22 | -5.59 | inactive
PTP4A1 (protein tyrosine phosphatase 4A1) | 3 | -0.439 | -0.123 | inactive
FKBP3 (FKBP prolyl isomerase 3) | 1 | 0.957 | 9.7 | inactive
FKBP3 (FKBP prolyl isomerase 3) | 2 | 6.49 | 48.6 | active
FKBP3 (FKBP prolyl isomerase 3) | 3 | 0.123 | 3.83 | inactive
SETBP1 (SET binding protein 1) | 1 | 0.0587 | 3.38 | inactive
SETBP1 (SET binding protein 1) | 2 | 3.95 | 30.8 | inactive
SETBP1 (SET binding protein 1) | 3 | -0.872 | -3.17 | inactive
LRRC4C (leucine rich repeat containing 4C) | 1 | -0.818 | -2.79 | inactive
LRRC4C (leucine rich repeat containing 4C) | 2 | 3 | 24.1 | inactive
LRRC4C (leucine rich repeat containing 4C) | 3 | -0.589 | -1.18 | inactive
TFPT (TCF3 fusion partner) | 1 | -0.849 | -3.01 | inactive
TFPT (TCF3 fusion partner) | 2 | 0.19 | 4.3 | inactive
TFPT (TCF3 fusion partner) | 3 | 0.219 | 4.51 | inactive
EPHB3 (EPH receptor B3) | 1 | -0.65 | -1.61 | inactive
EPHB3 (EPH receptor B3) | 2 | -0.886 | -3.27 | inactive
EPHB3 (EPH receptor B3) | 3 | -0.777 | -2.5 | inactive
ASS1 (argininosuccinate synthase 1) | 1 | 1.15 | 11 | inactive
ASS1 (argininosuccinate synthase 1) | 2 | 1.1 | 10.7 | inactive
ASS1 (argininosuccinate synthase 1) | 3 | -0.607 | -1.3 | inactive
TAC3 (tachykinin precursor 3) | 1 | 0.288 | 4.99 | inactive
TAC3 (tachykinin precursor 3) | 2 | 0.805 | 8.63 | inactive
TAC3 (tachykinin precursor 3) | 3 | -0.469 | -0.329 | inactive

Quoted from above (10 entries):
target gene | reagent | G2 robust z-score | G2 cells, % of GMNN control | Call
COL9A3 (collagen type IX alpha 3 chain) | 2 | -0.366 | 0.389 | inactive
COL9A3 (collagen type IX alpha 3 chain) | 3 | -0.41 | 0.0844 | inactive
PPP4R3B (protein phosphatase 4 regulatory subunit 3B) | 1 | -0.00558 | 2.93 | inactive
PPP4R3B (protein phosphatase 4 regulatory subunit 3B) | 2 | 0.642 | 7.49 | inactive
PPP4R3B (protein phosphatase 4 regulatory subunit 3B) | 3 | -0.249 | 1.21 | inactive
PTP4A1 (protein tyrosine phosphatase 4A1) | 1 | 1.26 | 11.8 | inactive
PTP4A1 (protein tyrosine phosphatase 4A1) | 2 | -1.22 | -5.59 | inactive
PTP4A1 (protein tyrosine phosphatase 4A1) | 3 | -0.439 | -0.123 | inactive
FKBP3 (FKBP prolyl isomerase 3) | 1 | 0.957 | 9.7 | inactive
FKBP3 (FKBP prolyl isomerase 3) | 2 | 6.49 | 48.6 | active
